Our source for the binding values is paper PMC10770081.

The target of this assay is Flag-tagged recombinant NAT10 truncation with the 501–758 amino acids region removed. In words: co-IP; anti-Flag precipitation from J82 cells with Flag-tagged full-length or truncated CLIC3 or NAT10; blot for the endogenous partner; Co-IP buffer 20 mM Tris-HCl pH 7.5, 150 mM NaCl, 1 mM EDTA, 0.5% NP-40; 4 °C.

These are yes or no findings as the source states them, for the method shown. In cells and extracts the contact can be indirect.

B1: Chloride intracellular channel 3 (CLIC3) protein (protein, UniProt O95833 1-236)
chain: MAETKLQLFVKASEDGESVGHCPSCQRLFMVLLLKGVPFTLTTVDTRRSPDVLKDFAPGSQLPILLYDSDAKTDTLQIEDFLEETLGPPDFPSLAPRYRESNTAGNDVFHKFSAFIKNPVPAQDEALYQQLLRALARLDSYLRAPLEHELAGEPQLRESRRRFLDGDRLTLADCSLLPKLHIVDTVCAHFRQAPIPAELRGVRRYLDSAMQEKEFKYTCPHSAEILAAYRPAVHPR
In the case of B1, the binding entry was “no binding”.
